The values below are quoted from earlier work in patent publication US9630929B2, “Benzenesulfonamide compounds and their use as therapeutic agents” (XENON PHARMACEUTICALS INC., priority 2011, dated 2017).

The conditions of this data set: lidocaine administered topically (Lidoderm patch); cited from earlier work.

As for `CCN(CC)CC(=O)Nc1c(C)cccc1C` [lidocaine], the plasma concentrations entry was “about 1 μM”.
